The name of at least one read-out is uncertain.
The compounds below were run on Viola arvensis (assay: Greenhouse trial, post-emergence herbicidal efficacy against Viola arvensis). Settings: scoring 14 days after application, g of ai/ha: A1.1 100, B1.1 5, C1 25, C2 100, C3 12.5, C4 2.5, C5 50, C6 125, C7 250, C8 250, C9 5, combinations at the same rates.
Type: in vivo
Method: The trials were carried out under greenhouse conditions (test pots, diameter 8 cm, spray application using 300 l of water/hectare, 2 repetitions, 6 to 8 plants per pot). Application was by post-emergence treatment; the species of the harmful plants and their stage of growth at the time of treatment are, indicated in the individual results tables. The application rates of the herbicidally active compounds used on their own or in combinations are likewise listed in the individual results tables.
Scoring was by visual comparison of the treated with the untreated controls (0-100% scale, 14-19 days after the application) (see details in the respective tables). The results (means for all plants per pot and means of two repetitions per pot and treatment) are lised in Tables 4 to 6 below.
4.2 Abbreviations Used in Tables 4 to 6 • application rate g/ai=application rate in grams of active compound per hectare • ai=active ingredient (of an active compound content of 100%) • GA=glufosinate-ammonium • GA-tolerant=oilseed rape which is tolerant to GA (GMO) • E^C=expected value according to Colby, (E^C=A+B−A×B/100)=for ternary combinations: (A+B)+C−(A+B)×C/100 • E^A=expected value according to the addition method (E^A=A+B) • A=difference (%) between observed value−%−vs. expected value (%) (observed value minus expected value) • examination:—observed values for (A), (B) and (A)+(B) in % • scoring:—observed value (%) greater >than E^C/E^A: ->synergism (+Δ) • observed value (%) equal to =E^c/E^A->additive effect (+−0Δ) • observed value (%) smaller <than E^A/E^c->antagonism (−Δ)

Going from `CP(=O)(O)CCC(N)C(=O)O` (stereo not drawn) [A1.1, glufosinate-ammonium] to `CCN(CC)C(=O)C(C)Oc1cccc2ccccc12` (stereo not drawn) [C6, napropamide], the “Herbicidal efficacy % Viola arvensis” value falls from 90% to 10%.

With `COCCN(C(=O)CCl)c1c(C)cccc1C` [C2, dimethachlor] the “Herbicidal efficacy % Viola arvensis” value was 0%.
